No constants are given. Whether binding was seen depends on the method and setting. Binding seen in cells or lysates may run through a third protein. Some entries that bind do so weakly or less than the wild type. Sequences can lack the tags named with a protein.
T1: GFP-USP29 wildtype (ubiquitin-specific peptidase 29) (human) (UniProt Q9HBJ7)
T1 sequence: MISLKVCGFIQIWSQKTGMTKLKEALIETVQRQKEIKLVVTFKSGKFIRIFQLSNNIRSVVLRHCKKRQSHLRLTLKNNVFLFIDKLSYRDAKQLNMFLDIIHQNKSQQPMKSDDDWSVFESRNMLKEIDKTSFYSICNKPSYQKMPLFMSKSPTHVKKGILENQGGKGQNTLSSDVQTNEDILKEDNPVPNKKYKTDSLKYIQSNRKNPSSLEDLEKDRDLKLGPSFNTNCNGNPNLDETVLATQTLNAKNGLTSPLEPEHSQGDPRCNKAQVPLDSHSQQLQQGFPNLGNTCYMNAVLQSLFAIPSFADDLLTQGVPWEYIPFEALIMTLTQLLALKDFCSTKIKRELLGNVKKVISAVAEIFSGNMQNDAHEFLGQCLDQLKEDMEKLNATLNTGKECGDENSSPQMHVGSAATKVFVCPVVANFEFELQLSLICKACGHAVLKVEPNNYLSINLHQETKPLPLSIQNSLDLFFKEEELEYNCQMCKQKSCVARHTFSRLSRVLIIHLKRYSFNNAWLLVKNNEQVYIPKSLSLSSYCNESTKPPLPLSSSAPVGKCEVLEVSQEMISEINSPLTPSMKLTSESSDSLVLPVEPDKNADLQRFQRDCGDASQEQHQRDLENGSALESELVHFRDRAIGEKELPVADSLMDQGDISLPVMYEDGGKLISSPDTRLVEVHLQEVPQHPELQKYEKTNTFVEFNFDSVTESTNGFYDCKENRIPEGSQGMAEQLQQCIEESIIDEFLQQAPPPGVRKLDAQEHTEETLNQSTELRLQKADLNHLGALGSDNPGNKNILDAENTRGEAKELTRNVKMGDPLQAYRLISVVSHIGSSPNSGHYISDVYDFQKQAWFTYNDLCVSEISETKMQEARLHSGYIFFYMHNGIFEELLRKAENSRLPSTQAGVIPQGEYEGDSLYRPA

T2: HA-SETD8 (UniProt Q9NQR1)
T2 sequence: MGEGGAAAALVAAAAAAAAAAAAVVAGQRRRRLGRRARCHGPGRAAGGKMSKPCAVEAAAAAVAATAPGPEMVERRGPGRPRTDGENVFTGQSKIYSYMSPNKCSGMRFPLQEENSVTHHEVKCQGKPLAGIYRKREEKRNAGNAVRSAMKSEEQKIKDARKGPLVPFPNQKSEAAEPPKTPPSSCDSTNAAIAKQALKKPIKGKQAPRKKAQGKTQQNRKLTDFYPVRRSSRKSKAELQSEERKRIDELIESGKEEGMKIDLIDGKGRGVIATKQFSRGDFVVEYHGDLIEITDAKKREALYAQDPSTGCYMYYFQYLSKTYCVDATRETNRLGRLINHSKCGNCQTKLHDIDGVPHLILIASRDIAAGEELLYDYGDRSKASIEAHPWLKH

B1: HA-SETD8 (enzyme, UniProt Q9NQR1 1-393)
chain: T2 sequence
B2: GFP-USP29 wildtype (ubiquitin-specific peptidase 29) (enzyme, UniProt Q9HBJ7 1-922)
chain: T1 sequence

Legend:
[1] = molecular target: T1, GFP-USP29 wildtype (ubiquitin-specific peptidase 29) (human); experiment: co-IP; 293T cells co-transfected with HA-SETD8 and GFP-USP29 (WT or CI); EB150 lysis buffer (50 mM Hepes pH 7.5, 150 mM NaCl, 5 mM EDTA, 2 mM MgCl2, 0.5% NP40, 10% glycerol); GFP immunoprecipitation on antibody-coupled protein A-sepharose, 2 h at 4 °C, four washes; Western blot
[2] = molecular target: T2, HA-SETD8; experiment: co-IP; 293T cells co-transfected with HA-SETD8 and GFP-USP29 (WT or CI); EB150 lysis buffer (50 mM Hepes pH 7.5, 150 mM NaCl, 5 mM EDTA, 2 mM MgCl2, 0.5% NP40, 10% glycerol); HA immunoprecipitation on antibody-coupled protein A-sepharose, 2 h at 4 °C, four washes; Western blot

Binder	binding [1]	binding [2]
B1	binds	
B2		binds
